Measured values taken from article PMC10534827 (Pharmaceuticals, 2023).

Legend:
SH-SY5Y cells = test: MTT cytotoxicity, SH-SY5Y; type: cell-based; conditions: Homo sapiens, 72 h exposure
[1] = Lipid peroxidation in linoleic acid system, FTC method; conditions: 10 mM compound, 500 nm
Procedure: During lipid peroxidation, peroxides were formed and oxidized Fe^2+ to Fe^3 +. The Fe^3+ ions formed a complex with SCN^–, with an absorption maximum of 500 nm. Thus, a high absorbance was an indication of high peroxide formation during the emulsion incubation. The presence of compounds with antioxidant properties in the mixture decreased the linoleic acid oxidation and reduced absorption, respectively. […] […].
The antioxidant activity of studied compounds against lipid peroxidation was measured through ammonium thiocyanate assay as described by Takao et al. with some modifications. The reaction solution, containing 200 μL of the compound (10 mM) in MeOH, 200 μL of linoleic acid emulsions (25 mg/mL in 99% ethanol), and 400 μL of 50 mM phosphate buffer (pH 7.6) was incubated in the dark at room temperature. A 10 μL aliquot of the reaction solution was then added to 200 μL of 70% (v/v) ethanol and 10 μL of 30% (w/v) ammonium thiocyanate. Precisely 3 min after the addition of 10 μL of 20 mM ferrous chloride in 3.5% (v/v) hydrochloric acid to the reaction mixture, the absorbance of the resulting red color was measured at 500 nm. Aliquots were assayed every 24 h until the day after the absorbance of the control solution (without compound) reached maximum value. BHT (10 mM) was used as positive control.

Neuro-2a cells = test: MTT cytotoxicity, Neuro-2a; type: cell-based, murine; conditions: Mus musculus, N2a, 72 h exposure
CCL-1 cells = test: MTT cytotoxicity, CCL-1 normal fibroblasts; type: cell-based, murine; conditions: Mus musculus, Fibroblast, 72 h exposure
[2] = ABTS radical scavenging assay; conditions: 734 nm after 5 min

## COc1cc2c(cc1OC)C(=O)C(CC1CCN(Cc3ccccc3)CC1)C2 (stereo not drawn) [Donepezil, 1-Benzyl-4-[(5,6-dimethoxy-1-indanon-2-yl)methyl]piperidine, reference compound]
SH-SY5Y cells
  IC50: 79.3 ± 6.2 µM
[1]; Day 1
  Absorbance Day 1: 0.79 ± 0.08
[1]; Day 2
  Absorbance Day 2: 0.82 ± 0.08
[1]; Day 3
  Absorbance Day 3: 0.84 ± 0.04
[1]; Day 4
  Absorbance Day 4: 1.19 ± 0.24
[1]; Day 5
  Absorbance Day 5: 2.00 ± 0.18
Neuro-2a cells
  IC50: 248 ± 15.4 µM
CCL-1 cells
  IC50: 52 ± 5.3 µM
[2]
  IC50: > 5 mM
